{"sequences": {"note": "Sequences of proteins named here, by UniProt entry; tags and fusion partners are left off.", "UniProt Q0JBA9, entry or part of it": "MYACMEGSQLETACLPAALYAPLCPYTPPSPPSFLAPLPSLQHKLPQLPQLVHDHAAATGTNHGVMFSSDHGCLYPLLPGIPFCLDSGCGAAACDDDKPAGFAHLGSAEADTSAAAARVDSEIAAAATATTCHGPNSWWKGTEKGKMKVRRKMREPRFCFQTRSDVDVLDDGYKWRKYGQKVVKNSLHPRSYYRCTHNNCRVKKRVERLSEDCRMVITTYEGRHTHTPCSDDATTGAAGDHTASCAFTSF"}, "source": "paper PMC7819943", "about": "“Rice protein-binding microarrays: a tool to detect cis-acting elements near promoter regions in rice”", "note": "The list shows a part of the results."}
{"target": "OsWRKY34 (Oryza sativa, UniProt Q0JBA9 1-250)", "experiment": "protein-binding microarray (RPBM); PBS, 2% BSA, 51.3 ng/ul salmon testes DNA, 50 uM zinc acetate, 200 nM TF, 25 C, 1 h; high values mean tight binding", "settings": "protein: recombinant; tags: N-terminal polyhistidine and DsRed monomer fusion (pET32a); label: CyDye5-dUTP incorporated in the synthesized complementary strand; 3' TTTTT single-stranded linker to array surface; dsDNA, one strand shown", "method_in_brief": "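Using Ni–NTA, transcription factors fused N-terminally to polyhistidine and DsRed were purified after expression in E. coli BL21-CodonPlus. These were incubated at 200 nM with a blocked, double-stranded custom Agilent array for 1 h at 25 °C in a buffer containing 50 µM zinc acetate, and the array was washed. The binding signal is per-feature fluorescence intensity (arbitrary units) on an Axon 4000B scanner.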"}
{"sequence": "CTGGCTTAATGGCTAGTGTTTGTACTCGTGTATCCAACTACGGAGTCACCTAGTGCAG", "binding signal": "8600 fluorescence intensity (a.u.)"}
{"sequence": "GCTAATGGGCCAGCCGCCCAGCTCGTTTCTATCTGCAACACGGAGTCACCTAGTGCAG", "binding signal": "9420 fluorescence intensity (a.u.)"}
{"sequence": "GGGTTTCCGTGTCTAACTTTAGCTTTTCGTCTTATATGAACGGAGTCACCTAGTGCAG", "binding signal": "8900 fluorescence intensity (a.u.)"}
{"sequence": "AGCTACAGTTTGCAGTTGTTCCCTAATTGTTGACCCTTTTCGGAGTCACCTAGTGCAG", "binding signal": "10400 fluorescence intensity (a.u.)"}
{"sequence": "TACAACCCTGGCCCATGACGTCACCTACTCTTTCTCCTTTCGGAGTCACCTAGTGCAG", "binding signal": "12400 fluorescence intensity (a.u.)"}
{"sequence": "GATACCGTACTCTCTTAATTTCTTTTTAATATACGATGTACGGAGTCACCTAGTGCAG", "binding signal": "9390 fluorescence intensity (a.u.)"}
{"sequence": "CGATGAATGTATGATTGGGGTATTGTCAGTGTCATATTATCGGAGTCACCTAGTGCAG", "binding signal": "9180 fluorescence intensity (a.u.)"}
{"sequence": "GTTGTGTTGCCCGCTTGGAAAAATACCGACTTTTACATACCGGAGTCACCTAGTGCAG", "binding signal": "9700 fluorescence intensity (a.u.)"}
{"sequence": "TTCATTAAACCAGCCAGATTTGCCTCTCCGATTGGCTGCTCGGAGTCACCTAGTGCAG", "binding signal": "8550 fluorescence intensity (a.u.)"}
{"sequence": "TGGGTCATCTCATTACACCCGTCACGGATGAGATATTGTCCGGAGTCACCTAGTGCAG", "binding signal": "8290 fluorescence intensity (a.u.)"}
{"sequence": "CACCGACCCGCGCGCCGCGCCCACCTCCAGGCCGTCGAACCGGAGTCACCTAGTGCAG", "binding signal": "9690 fluorescence intensity (a.u.)"}
{"sequence": "CAGATGAACTACACTTGTTCTATTTTCTTTGGGTTGCTTTCGGAGTCACCTAGTGCAG", "binding signal": "8930 fluorescence intensity (a.u.)"}
{"sequence": "ACCATCACCGCCGTCGCGTCACCCGTCGCCGGCCGCCGACCGGAGTCACCTAGTGCAG", "binding signal": "8810 fluorescence intensity (a.u.)"}
{"sequence": "TATTTTTTAATTGCTACGTTTTTTCCATTCGTGTGATTAACGGAGTCACCTAGTGCAG", "binding signal": "11100 fluorescence intensity (a.u.)"}
{"sequence": "TATTTATTAACTTTGTCATATTTGTTCCATTTATACGACTCGGAGTCACCTAGTGCAG", "binding signal": "10700 fluorescence intensity (a.u.)"}
{"sequence": "CCGTAGCATATGAGCCAACTCCATCCCATCACTTGCTTCCCGGAGTCACCTAGTGCAG", "binding signal": "9850 fluorescence intensity (a.u.)"}
{"sequence": "AATATAGGTTTAGTGGCATTTAACAACTCACGCTTGAATCCGGAGTCACCTAGTGCAG", "binding signal": "8320 fluorescence intensity (a.u.)"}
{"sequence": "GATTGGTTGTCATTCGGTCTCTTTTTCGTTTCTCGCATTACGGAGTCACCTAGTGCAG", "binding signal": "12900 fluorescence intensity (a.u.)"}
{"sequence": "GTTTACGGGTGGAATTTATAATTTGTTTTGTTATTAGTCCCGGAGTCACCTAGTGCAG", "binding signal": "10300 fluorescence intensity (a.u.)"}
{"sequence": "ATGCATTGACATACTAGTACCTTATACTACTCCTATGTGCCGGAGTCACCTAGTGCAG", "binding signal": "10000 fluorescence intensity (a.u.)"}
{"sequence": "CGCATAGTCGCAGCTCTTCTCTCTCTCGCTCGCTCGCTCGCGGAGTCACCTAGTGCAG", "binding signal": "8870 fluorescence intensity (a.u.)"}
{"sequence": "TAGCTTTTTACTGTTGGCCATGATGGTTGTCATCTTGTTTCGGAGTCACCTAGTGCAG", "binding signal": "12000 fluorescence intensity (a.u.)"}
{"sequence": "ATGCATGTACGCCCATGTTTAGTTCTAAACTTTTTCTTCGCGGAGTCACCTAGTGCAG", "binding signal": "8550 fluorescence intensity (a.u.)"}
{"sequence": "CACCCTCTCCCGTGTTCCACCCCGCCCGCGAATCATATCCCGGAGTCACCTAGTGCAG", "binding signal": "9340 fluorescence intensity (a.u.)"}
{"sequence": "CACTAGCTACCTTGGTCAACCATGGCTGCAGCTTCACCTTCGGAGTCACCTAGTGCAG", "binding signal": "8700 fluorescence intensity (a.u.)"}
{"sequence": "AGTATAGAGGTGAGCAGGTCAGACGAAGTGTTGCTGATTTCGGAGTCACCTAGTGCAG", "binding signal": "8380 fluorescence intensity (a.u.)"}
{"sequence": "CTCCCCTTAGCTTAACACACCACACACACCCACACTGGCACGGAGTCACCTAGTGCAG", "binding signal": "8150 fluorescence intensity (a.u.)"}
{"sequence": "ATGATTTGGCCCAAGAATCGCATCTCGTCGTGGATAAGACCGGAGTCACCTAGTGCAG", "binding signal": "8270 fluorescence intensity (a.u.)"}
{"sequence": "CGTGTGCTGAAATTTGTTAGTTGTACTCTCTTGTTTGACTCGGAGTCACCTAGTGCAG", "binding signal": "12700 fluorescence intensity (a.u.)"}
{"sequence": "TCCACTCCCAGTCCAGGGTCAGAAGCTTGCTGTTGAATTCCGGAGTCACCTAGTGCAG", "binding signal": "8520 fluorescence intensity (a.u.)"}
{"sequence": "CTACTTTTAACCATTTCAGTTATCTGTTTTTCTTTTCAATCGGAGTCACCTAGTGCAG", "binding signal": "10500 fluorescence intensity (a.u.)"}
{"sequence": "CTATGCCACTGACGTCACCTTTTCTATCCATCCTCTCCATCGGAGTCACCTAGTGCAG", "binding signal": "13700 fluorescence intensity (a.u.)"}
{"sequence": "TGCTCGTTTTAATTCCTACTGCCCTCTTGCTGCTCACCAACGGAGTCACCTAGTGCAG", "binding signal": "10500 fluorescence intensity (a.u.)"}
{"sequence": "GATCACCACCGCAATGGCTCGCCGCACCACGCGACTATTTCGGAGTCACCTAGTGCAG", "binding signal": "8560 fluorescence intensity (a.u.)"}
{"sequence": "TCTTCTCTTCTTTGCCCTTGCGCCGCCTTCTCCGCGGCATCGGAGTCACCTAGTGCAG", "binding signal": "11400 fluorescence intensity (a.u.)"}
{"sequence": "GCATTTTGGTCTTTTATCACTCTCCTTAAATCCTTTATATCGGAGTCACCTAGTGCAG", "binding signal": "12000 fluorescence intensity (a.u.)"}
{"sequence": "TTGGTCTCTCCTCGTCGCTGGGGTTCTTTGTTCTTGTAGTCGGAGTCACCTAGTGCAG", "binding signal": "10000 fluorescence intensity (a.u.)"}
{"sequence": "TCTCACACACACACGCAAACACACAGCTTGGACCTTGGACCGGAGTCACCTAGTGCAG", "binding signal": "9170 fluorescence intensity (a.u.)"}
{"sequence": "TTTCGTACCTGTAGCTTTATTACATCGCATTTCCTCTTATCGGAGTCACCTAGTGCAG", "binding signal": "9120 fluorescence intensity (a.u.)"}
{"sequence": "ATATTGACCTGACGTTTTCTTTGGTGGTACACATATATTACGGAGTCACCTAGTGCAG", "binding signal": "9430 fluorescence intensity (a.u.)"}
{"sequence": "AGAATACCCCGCCTATAAATACACCTCTTCTGCTCATCTTCGGAGTCACCTAGTGCAG", "binding signal": "8980 fluorescence intensity (a.u.)"}
{"sequence": "TTGTTGATGGTTGATCATTCCTTATGTTGACATGTTCATTCGGAGTCACCTAGTGCAG", "binding signal": "8580 fluorescence intensity (a.u.)"}
